No constants are given. Whether binding was seen depends on the method and setting. Some entries that bind do so weakly or less than the wild type. Tags and fused reporters may be left off the sequences shown.
Key:
[1] = biological target: rhOPN (recombinant human osteopontin, cod. 1433-OP-050/CF, R&D system) (human) (UniProt P10451); test: ELISA, OPN coated (figure legend)
[2] = biological target: rhOPN (recombinant human osteopontin, cod. 1433-OP-050/CF, R&D system) (human) (UniProt P10451); test: ELISA and pull-down of FIG. 6, as told in the description
[3] = biological target: rhOPN (recombinant human osteopontin, cod. 1433-OP-050/CF, R&D system) (human) (UniProt P10451); test: ELISA, OPN coated, titrated B7h-Fc, anti-IgG1 mAb detection
[4] = biological target: rhOPN (recombinant human osteopontin, cod. 1433-OP-050/CF, R&D system) (human) (UniProt P10451); test: pull-down, B7h-Fc bait on Sepharose, Western blot with anti-OPN
[5] = biological target: rhOPN (recombinant human osteopontin, cod. 1433-OP-050/CF, R&D system) (human) (UniProt P10451); test: ELISA, OPN coated, titrated B7h-Fc in the presence of ICOS-Fc as competitor

The chains behind the UniProt entries cited, without tags or fusion partners. Where a name states a change or a piece, a line headed by the entry shows the natural chain unless it says otherwise. A line that says so, or that is headed by a name, gives the form on record, which may keep a tag or linker.
rhOPN (recombinant human osteopontin, cod. 1433-OP-050/CF, R&D system) (P10451, form named): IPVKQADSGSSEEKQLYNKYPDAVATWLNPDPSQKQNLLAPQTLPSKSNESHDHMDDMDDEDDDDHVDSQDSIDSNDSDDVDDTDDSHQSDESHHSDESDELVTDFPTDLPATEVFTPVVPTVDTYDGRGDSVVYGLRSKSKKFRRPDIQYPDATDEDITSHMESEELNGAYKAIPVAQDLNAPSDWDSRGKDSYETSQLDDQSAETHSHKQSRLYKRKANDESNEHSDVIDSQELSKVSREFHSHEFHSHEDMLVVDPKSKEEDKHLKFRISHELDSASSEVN

Measured: binding

B1: rhB7h2-Fc (recombinant soluble B7h-Fc, cod. 165-B7-100, R&D system) (Fc fusion, human, UniProt O75144 19-258, looked up, not shown: a dimerising Fc or GST)
chain: DTQEKEVRAMVGSDVELSCACPEGSRFDLNDVYVYWQTSESKTVVTYHIPQNSSLENVDSRYRNRALMSPAGMLRGDFSLRLFNVTPQDEQKFHCLVLSQSLGFQEVLSVEVTLHVAANFSVPVVSAPHSPSQDELTFTCTSINGYPRPNVYWINKTDNSLLDQALQNDTVFLNMRGLYDVVSVLRIARTPSVNIGCCIENVLLQQNLTVGSQTGNDIGERDKITENPVSTGEKNAATWS
binds: all assays above
